These results are taken from the supplement of paper PMC5949888.

Most values lie at the floor of the assay. Slopes are relative: functional sequences can read slightly below zero. Some results are limits rather than exact numbers.

This data set has as its system Saccharomyces cerevisiae PS128 hsf1 delta, HSF1(1-493) fusion. As to the kind of experiment: growth estimate (transactivation domain function in HSF1 fusion, heat-shock survival) (a.u. (slope of normalised read count over time)); higher = stronger growth at 37°C, i.e. more transactivation activity. Particulars: library: random library.
As to QCMPMEI, the growth estimate was < -0.25.

On to GSVRWAGNKRYESKR, for which the growth estimate was < -0.25.

For LAFGPVGVKRWPRLPREVGP, the growth estimate was < -0.25.

Turning to GSTH, the growth estimate was < -0.25.

As to VVRFCIREAPPPW, the growth estimate was < -0.25.

In the case of YEPARRDGNVGVWIT, the growth estimate was < -0.25.

In the case of HGPNTDRHT, the growth estimate is < -0.25.

For IYNPSFQLRDTSRGPWLVLP, the growth estimate is < -0.25.

In the case of APVK, the growth estimate is < -0.25.

Turning to PKVGILHVCLGQNPKLPHVW, the growth estimate was < -0.25.

VLRFTLISLDSTGMVCEQRV: the growth estimate is < -0.25.

With EIIDSVYVNCSCQFPGRTAY, the growth estimate was < -0.25.

With PTRKPNALVGLGLRCEETSS, the growth estimate was < -0.25.

SVGAVATPTLW: the growth estimate is < -0.25.

As to SGNGRCGRFEAGARWCARQT, the growth estimate was < -0.25.

As for AGVFVQNIGNMMNIPCLSQA, the growth estimate was < -0.25.

Turning to VKRGTKPRSDLMRTFSQLTW, the growth estimate was < -0.25.

As for YLT, the growth estimate is < -0.25.

For the substance GATVVS, the growth estimate is < -0.25.

Consider RPL, for which the growth estimate is < -0.25.

On to GDLSILSATQEMGPLAAGSP, for which the growth estimate is < -0.25.

Consider GQFMGMWASMSARVLFAPFR, for which the growth estimate is < -0.25.

GLARPQVQNFLRTDSGIGIG: the growth estimate was < -0.25.

Turning to GRCTYSSPYGLACFLACLHC, the growth estimate is < -0.25.

Turning to GKKLTSVRTAKRLYFEPMGF, the growth estimate was < -0.25.

On to NPGAPVRLASGVA, for which the growth estimate was < -0.25.

As for RISGKG, the growth estimate was < -0.25.

For GLTV, the growth estimate was < -0.25.

In the case of QEGAGQLVTIQLPRDHGKTS, the growth estimate is -0.246.

Turning to PKVGKLQPGGYVGHHNRGLV, the growth estimate was < -0.25.

As to RKRHPSLPL, the growth estimate is < -0.25.

SHQTSRPVACSQVRAWHQRR: the growth estimate was < -0.25.

Turning to RRFRRHEHCVQFLGPSRVPR, the growth estimate was -0.246.

Regarding PSLV, the growth estimate was < -0.25.

As for RLSIHFGAVTDTC, the growth estimate is < -0.25.

Regarding LLSVCIFTGAHGSGRIHPVS, the growth estimate is < -0.25.

Consider DLYSVGGKLVSSRFPFAKPV, for which the growth estimate is < -0.25.

Consider SVCLSGYRKRMSFRVGTRRQ, for which the growth estimate is < -0.25.

With LNTALIGG, the growth estimate was < -0.25.

For RLWATGNQE, the growth estimate was -0.246.

SFLYAAEVIFADVRYALRVW: the growth estimate was < -0.25.

As to GDQVSWAALLPVSI, the growth estimate is -0.194.

Turning to THNM, the growth estimate was < -0.25.

Regarding KFADGGKKPIP, the growth estimate is < -0.25.

Consider YEHRRVFAVDSFRRTNSLPP, for which the growth estimate is < -0.25.

Take LNGLECC: the growth estimate is < -0.25.

In the case of SRIAVYGREET, the growth estimate was < -0.25.

As to KWGHYHRL, the growth estimate is < -0.25.

With GYRLERGGPTACQDTKARKG, the growth estimate is < -0.25.

As to QLTHVSQHLDLDP, the growth estimate was < -0.25.

As for RWDAFVSYGRYGEAFP, the growth estimate is < -0.25.

With SLGT, the growth estimate was < -0.25.

In the case of YQYVIWYQEEF, the growth estimate is < -0.25.

For the substance VWGLTVQKITSQNIIPAYRP, the growth estimate was < -0.25.

For IYGGGASVRPVEGKRSAAPR, the growth estimate is < -0.25.

GSTSWSHTLRMGYKRATPGR: the growth estimate was < -0.25.

KRGTCSEQYSSLPAICLCAS: the growth estimate is < -0.25.

Turning to RELLAKWLKVRRA, the growth estimate is < -0.25.

In the case of CQCLRWCPGLSPKKFLSLPR, the growth estimate was < -0.25.

In the case of PQRGPRQKVRWDRVQD, the growth estimate was < -0.25.

Regarding PMSAESCTKARLDILLSKIL, the growth estimate is < -0.25.

For the substance GLSRGCAAWRIWLRVMNVTG, the growth estimate is < -0.25.

Turning to QPGA, the growth estimate was < -0.25.

With IFIRGTIGTGAPQTLDMSLG, the growth estimate is < -0.25.

For the substance FNGQVKVRGCSLSAPSE, the growth estimate is < -0.25.

As to KSMLLKYYLVSSKL, the growth estimate is < -0.25.

ESKIFQWSTRWWIRRAKHKL: the growth estimate was < -0.25.

As for FAVIL, the growth estimate is < -0.25.

Consider STQSVGRQSRPLALSTQ, for which the growth estimate is -0.246.

PIHYGQAL: the growth estimate is < -0.25.

With STKFDGGDSVR, the growth estimate was < -0.25.

As to LSFTKCRSRVTGLANSYLHR, the growth estimate was < -0.25.

Turning to TRVYEARLRGPTSKSSLSPG, the growth estimate is < -0.25.

SQGGFPRMRTTGIRKYPVD: the growth estimate is < -0.25.

In the case of EREWTGYLQQGACRCRGETS, the growth estimate is < -0.25.

For the substance CGLSAHGIPCTDGDCRYWGS, the growth estimate is < -0.25.

Take GKGKAPPRGVAPCIGFILSA: the growth estimate was < -0.25.

For ESPTNGVWLGLDHCYSSPSA, the growth estimate was 0.0798.

As to RFVISE, the growth estimate is < -0.25.

As for IPKTIRSGNVKVPHAPEHYL, the growth estimate was < -0.25.

As for RSVLAPEHQVNSR, the growth estimate was < -0.25.

Regarding GSSLFLVKSALLGRQVARLT, the growth estimate was < -0.25.

For the substance LFESVYNTK, the growth estimate was -0.0736.

For the substance RMKGLC, the growth estimate is < -0.25.

For the substance RGQVPFNLYKFVHHGPTAFG, the growth estimate is < -0.25.

Consider ELWDRSAT, for which the growth estimate was < -0.25.

On to RLTPRWVGMGFPNLDGGVAS, for which the growth estimate is < -0.25.

As for ENRFKYSFSKGVSAMACWID, the growth estimate was < -0.25.

Regarding SSGPY, the growth estimate was < -0.25.

VLVPLKGLQSGRLVQDEFHL: the growth estimate was < -0.25.

With SIYVI, the growth estimate was < -0.25.

Regarding TPALTGRNERRAGPLILLFQ, the growth estimate was < -0.25.

VYPVTKAGFGLIS: the growth estimate was < -0.25.

Consider RHKYPGLSTFPHGLVSIVIW, for which the growth estimate is < -0.25.

For the substance YTRRPG, the growth estimate is < -0.25.

On to WQSY, for which the growth estimate was < -0.25.

On to RVNY, for which the growth estimate is < -0.25.

Consider NVRATAIVAVREHRSLAK, for which the growth estimate was < -0.25.

With RWFSEKWVRELGPWLAHALL, the growth estimate is < -0.25.

In the case of YNATHGFTVVLYPKWLLPQP, the growth estimate was < -0.25.

Take LILLYSETR: the growth estimate is < -0.25.

With RLVMQ, the growth estimate is < -0.25.

Take TPSGC: the growth estimate is < -0.25.

In the case of CNPKASQVSSEAREHVNIGG, the growth estimate was < -0.25.

In the case of YTSDLRRAVG, the growth estimate is < -0.25.

For the substance ANYHVTMNGMGAARRIRPVS, the growth estimate was < -0.25.

Turning to NGEIYHQTLSSTVLKPPGTP, the growth estimate was < -0.25.

In the case of NVLQPNRGYQHCV, the growth estimate was < -0.25.

As to RLTIMEESRR, the growth estimate is < -0.25.

In the case of LRHRFTRISV, the growth estimate was < -0.25.

As to EVEV, the growth estimate is < -0.25.

FIPGVK: the growth estimate was < -0.25.

PRWAFCVDRLMSVLEFVAAI: the growth estimate is < -0.25.

As for SGHVCRFPCLQNGQEEQARR, the growth estimate was < -0.25.

With VLDISVYGIGTVMSLPAPIV, the growth estimate is < -0.25.

With CRKDVDKRRLPDVQ, the growth estimate was < -0.25.
